According to ChEMBL document CHEMBL4819115, “Discovery of potent and selective reversible Bruton's tyrosine kinase inhibitors” (Bioorg Med Chem, 2021):
In brackets after ≈: the same amount, converted by molar mass.

Experiment: physchem
Settings: simulated gi fluid

Row | SMILES | solubility [mg/mL]
1 | Cc1nn(C(C)C)cc1-c1nc2c(-c3ccc4c(c3)CCC[C@@H]4NC(=O)c3nc(C(C)(C)C)no3)ccnc2[nH]1 | 0.007 (≈ 13 µM)
2 | Cc1nn(C(C)C)c(C)c1-c1nc2nccc(-c3ccc4c(c3)CCCC[C@H]4NC(=O)c3nc(C(C)(C)C)no3)c2[nH]1 | 0.033 (≈ 58.2 µM)
